Results published in publication PMC6450497.
These are yes or no findings as the source states them, for the method shown. In cells and extracts the contact can be indirect. Some results given as binding are weak or reduced against the parent protein; the word gives no strength.

Chains of the proteins cited; added tags and fusions are not shown. Residues count along the entry.
UniProt P19490, residues 19-907: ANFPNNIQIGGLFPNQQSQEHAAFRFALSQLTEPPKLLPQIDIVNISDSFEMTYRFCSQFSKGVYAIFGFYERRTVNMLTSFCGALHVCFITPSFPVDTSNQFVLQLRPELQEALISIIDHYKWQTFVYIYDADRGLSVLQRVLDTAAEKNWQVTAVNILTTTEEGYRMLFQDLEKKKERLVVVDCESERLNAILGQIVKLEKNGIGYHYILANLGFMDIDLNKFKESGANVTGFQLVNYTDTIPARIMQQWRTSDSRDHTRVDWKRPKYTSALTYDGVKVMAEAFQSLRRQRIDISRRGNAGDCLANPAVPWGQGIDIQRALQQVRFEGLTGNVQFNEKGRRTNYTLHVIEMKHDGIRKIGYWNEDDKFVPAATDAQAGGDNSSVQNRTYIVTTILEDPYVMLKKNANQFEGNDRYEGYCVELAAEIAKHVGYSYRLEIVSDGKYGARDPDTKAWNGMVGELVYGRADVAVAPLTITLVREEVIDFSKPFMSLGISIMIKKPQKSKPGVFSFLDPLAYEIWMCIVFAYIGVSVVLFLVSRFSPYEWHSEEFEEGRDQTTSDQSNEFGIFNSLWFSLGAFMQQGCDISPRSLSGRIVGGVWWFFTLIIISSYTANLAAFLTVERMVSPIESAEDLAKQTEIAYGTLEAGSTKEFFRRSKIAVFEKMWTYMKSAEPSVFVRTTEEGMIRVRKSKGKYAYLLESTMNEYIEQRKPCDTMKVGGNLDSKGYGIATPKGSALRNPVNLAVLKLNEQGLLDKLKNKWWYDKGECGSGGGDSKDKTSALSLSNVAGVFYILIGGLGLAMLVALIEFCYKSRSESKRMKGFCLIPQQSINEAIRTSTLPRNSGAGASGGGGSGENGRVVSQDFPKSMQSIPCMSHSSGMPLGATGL

Biological target: GluR1 expressed from pCI-SEP-GluR1 in HEK293T cells (UniProt P19490)
Test: co-IP; anti-C-GluR1 antibody on 2 mg pre-cleared lysate of HEK293T cells transfected with pCI-SEP-GluR1 and pCMV6 FKBP5 or empty vector, with or without 100 µM AMPA for 10 min before harvest; overnight 4°C, Protein A Dynabeads; rabbit IgG as control

- binding: binds
B1: FK506-binding protein 51 (FKBP51) expressed from pCMV6 FKBP5 in HEK293T cells (protein, UniProt Q13451 1-457)
chain: MTTDEGAKNNEESPTATVAEQGEDITSKKDRGVLKIVKRVGNGEETPMIGDKVYVHYKGKLSNGKKFDSSHDRNEPFVFSLGKGQVIKAWDIGVATMKKGEICHLLCKPEYAYGSAGSLPKIPSNATLFFEIELLDFKGEDLFEDGGIIRRTKRKGEGYSNPNEGATVEIHLEGRCGGRMFDCRDVAFTVGEGEDHDIPIGIDKALEKMQREEQCILYLGPRYGFGEAGKPKFGIEPNAELIYEVTLKSFEKAKESWEMDTKEKLEQAAIVKEKGTVYFKGGKYMQAVIQYGKIVSWLEMEYGLSEKESKASESFLLAAFLNLAMCYLKLREYTKAVECCDKALGLDSANEKGLYRRGEAQLLMNEFESAKGDFEKVLEVNPQNKAARLQISMCQKKAKEHNERDRRIYANMFKKFAEQDAKEEANKAMGKKTSEGVTNEKGTDSQAMEEEKPEGHV
